Two molecules from article PMC10055520 can be followed below.

Amino acid sequences for entries named in this document (tags omitted).
UniProt P70210: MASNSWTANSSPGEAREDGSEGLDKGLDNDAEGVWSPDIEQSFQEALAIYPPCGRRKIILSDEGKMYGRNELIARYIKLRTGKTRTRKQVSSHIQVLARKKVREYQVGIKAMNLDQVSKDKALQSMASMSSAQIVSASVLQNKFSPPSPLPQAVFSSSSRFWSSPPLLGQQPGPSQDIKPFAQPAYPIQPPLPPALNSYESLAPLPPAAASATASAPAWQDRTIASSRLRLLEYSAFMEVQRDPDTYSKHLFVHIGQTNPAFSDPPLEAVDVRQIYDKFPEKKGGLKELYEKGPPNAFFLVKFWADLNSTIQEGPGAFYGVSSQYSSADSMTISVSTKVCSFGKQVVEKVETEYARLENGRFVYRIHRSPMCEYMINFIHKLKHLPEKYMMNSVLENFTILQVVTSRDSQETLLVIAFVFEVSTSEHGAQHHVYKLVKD
UniProt P46937: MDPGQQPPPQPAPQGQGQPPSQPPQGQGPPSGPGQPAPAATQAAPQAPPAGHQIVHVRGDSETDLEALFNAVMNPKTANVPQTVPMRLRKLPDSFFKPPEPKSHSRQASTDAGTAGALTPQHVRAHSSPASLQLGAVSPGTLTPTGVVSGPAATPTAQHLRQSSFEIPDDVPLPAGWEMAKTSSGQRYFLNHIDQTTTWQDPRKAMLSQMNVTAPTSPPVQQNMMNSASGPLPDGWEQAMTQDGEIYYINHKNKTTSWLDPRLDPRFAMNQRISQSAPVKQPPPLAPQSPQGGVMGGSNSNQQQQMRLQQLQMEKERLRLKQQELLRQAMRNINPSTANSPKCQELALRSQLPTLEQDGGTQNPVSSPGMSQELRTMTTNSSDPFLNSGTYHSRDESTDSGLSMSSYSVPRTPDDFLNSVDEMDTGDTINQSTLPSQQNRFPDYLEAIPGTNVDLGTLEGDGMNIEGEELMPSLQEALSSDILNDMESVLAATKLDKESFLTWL

Assay [1] has as its target MYC-tagged full-length mouse Tead3 (mouse) (UniProt P70210). Kind of assay: co-IP; HEK293T cells (control, MALAT1-knockout or Malat1-restored) co-transfected with SFB-Nfatc1 and MYC-Tead3; RIPA lysate; pulldown with S-protein beads or a MYC-specific antibody, 4 °C overnight; blots for MYC and FLAG.
For a further assay, the target named is SFB-YAP (UniProt P46937). Kind of assay: co-IP; HEK293T cells co-transfected with HA-Nfatc1 and SFB-YAP; pulldown with an HA-specific antibody or S-protein beads; blots for FLAG and HA.

These are yes or no findings as the source states them, for the method shown. In cells and extracts the contact can be indirect. Some binding calls cover weakened binding; strength is not graded here. Sequences can lack the tags named with a protein.

B1: SFB-tagged full-length mouse Nfatc1 (protein, UniProt O88942 1-717)
chain: MPNTSFPVPSKFPLGPPAAVCGSGETLRPAPPSGGTMKAAEEEHYSYVSPSVTSTLPLPTAHSALPAACHDLQTSTPGISAVPSANHPPSYGGAVDSGPSGYFLSSGNTRPNGAPTLESPRIEITSYLGLHHGSGQFFHDVEVEDVLPSCKRSPSTATLHLPSLEAYRDPSCLSPASSLSSRSCNSEASSYESNYSYPYASPQTSPWQSPCVSPKTTDPEEGFPRSLGACHLLGSPRHSPSTSPRASITEESWLGARGSRPTSPCNKRKYSLNGRQPSCSPHHSPTPSPHGSPRVSVTEDTWLGNTTQYTSSAIVAAINALTTDSTLDLGDGVPIKSRKTALEHAPSVALKVEPAGEDLGTTPPTSDFPPEEYTFQHLRKGAFCEQYLSVPQASYQWAKPKSLSPTSYMSPSLPALDWQLPSHSGPYELRIEVQPKSHHRAHYETEGSRGAVKASAGGHPIVQLHGYLENEPLTLQLFIGTADDRLLRPHAFYQVHRITGKTVSTTSHEIILSNTKVLEIPLLPENNMRAIIDCAGILKLRNSDIELRKGETDIGRKNTRVRLVFRVHIPQPNGRTLSLQVASNPIECSQRSAQELPLVEKQSTDSYPVIGGKKMVLSGHNFLQDSKVIFVEKAPDGHHVWEMEAKTDRDLCKPNSLVVEIPPFRNQRITSPAQVSFYVCNGKRKRSQYQRFTYLPANGNSVFLTLSSESELRGGFY
On to B1, for which the binding result in assay [1] is “binds”.

B2: HA-Nfatc1 (protein, UniProt O88942 1-717)
chain: B1 chain
With B2, in the assay with SFB-YAP, the binding entry is on record as “no binding”.
